Measurements published in article PMC9763448.
These are yes or no findings as the source states them, for the method shown. Some results given as binding are weak or reduced against the parent protein; the word gives no strength.

Molecular target: T1, PmDAM5 (Prunus mume) (UniProt G1UE18)
T1 sequence: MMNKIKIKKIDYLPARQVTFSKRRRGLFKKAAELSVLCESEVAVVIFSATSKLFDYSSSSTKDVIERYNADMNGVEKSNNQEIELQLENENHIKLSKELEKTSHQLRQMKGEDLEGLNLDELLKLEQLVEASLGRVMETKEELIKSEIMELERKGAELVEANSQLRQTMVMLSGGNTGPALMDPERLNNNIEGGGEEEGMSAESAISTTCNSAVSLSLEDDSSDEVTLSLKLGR
Test: two-hybrid; yeast two-hybrid; baits in pGBKT7, preys in pGADT7; baits tested for autoactivation and toxicity; growth at four levels of initial concentration; screening in triplicate

B1: PmDAM1 (protein, UniProt G1UE19 1-235)
chain: MKMMREKIKIKKIDNLPARQVTFSKRRRGIFKKAAELSVLCESEVAVVIFSATGKLFDYSSSSMKDVIERYQVHINGGEKFNERSIELQPEYENHIRLSKELKEKSRQLRQMKGEDLEELNFDELQKLEQLVDASLGRVIETKDERIMSEIMALERKRAELVKANKQLRQRMLFRGNIGPELMKPERLNNNFGGGGEEEGMSSESATSTTCNSAPSLSLEDDSDDVTLSLKLGLP
- binding: binds
